Results are given in words; binding and its absence hold for the method and conditions named. Binding seen in cells or lysates may run through a third protein. A yes stands for co-enrichment or nearness to the bait. Other partners may have been found.
Molecular target: 3XFlag-CFIm25 (human) (UniProt O43809)
Test: affinity purification with mass spectrometry; Anti-Flag Affinity Gel on lysates of H9 hESCs stably overexpressing Flag-tag CFIm25 or negative control; 4°C, 3 h; washes 30 mM Tris-Cl pH 7.4, 150 mM NaCl, 0.5% Triton X-100; elution with Poly FLAG peptide; no ribonuclease

B1: CFIm59 (protein, UniProt Q8N684 1-471)
chain: MSEGVDLIDIYADEEFNQDPEFNNTDQIDLYDDVLTATSQPSDDRSSSTEPPPPVRQEPSPKPNNKTPAILYTYSGLRNRRAAVYVGSFSWWTTDQQLIQVIRSIGVYDVVELKFAENRANGQSKGYAEVVVASENSVHKLLELLPGKVLNGEKVDVRPATRQNLSQFEAQARKRECVRVPRGGIPPRAHSRDSSDSADGRATPSENLVPSSARVDKPPSVLPYFNRPPSALPLMGLPPPPIPPPPPLSSSFGVPPPPPGIHYQHLMPPPPRLPPHLAVPPPGAIPPALHLNPAFFPPPNATVGPPPDTYMKASAPYNHHGSRDSGPPPSTVSEAEFEDIMKRNRAISSSAISKAVSGASAGDYSDAIETLLTAIAVIKQSRVANDERCRVLISSLKDCLHGIEAKSYSVGASGSSSRKRHRSRERSPSRSRESSRRHRDLLHNEDRHDDYFQERNREHERHRDRERDRHH
- binding: binds

Reference: publication PMC9067535
